These are yes or no findings as the source states them, for the method shown. Binding seen in cells or lysates may run through a third protein. Some binding calls cover weakened binding; strength is not graded here. For part of these data: Where a sequence is shown, tags or fusion partners need not be part of it.
T1: MYC-tagged full-length mouse MPP2 (MAGUK p55 subfamily member 2) (mouse) (UniProt Q9WV34)
T1 sequence: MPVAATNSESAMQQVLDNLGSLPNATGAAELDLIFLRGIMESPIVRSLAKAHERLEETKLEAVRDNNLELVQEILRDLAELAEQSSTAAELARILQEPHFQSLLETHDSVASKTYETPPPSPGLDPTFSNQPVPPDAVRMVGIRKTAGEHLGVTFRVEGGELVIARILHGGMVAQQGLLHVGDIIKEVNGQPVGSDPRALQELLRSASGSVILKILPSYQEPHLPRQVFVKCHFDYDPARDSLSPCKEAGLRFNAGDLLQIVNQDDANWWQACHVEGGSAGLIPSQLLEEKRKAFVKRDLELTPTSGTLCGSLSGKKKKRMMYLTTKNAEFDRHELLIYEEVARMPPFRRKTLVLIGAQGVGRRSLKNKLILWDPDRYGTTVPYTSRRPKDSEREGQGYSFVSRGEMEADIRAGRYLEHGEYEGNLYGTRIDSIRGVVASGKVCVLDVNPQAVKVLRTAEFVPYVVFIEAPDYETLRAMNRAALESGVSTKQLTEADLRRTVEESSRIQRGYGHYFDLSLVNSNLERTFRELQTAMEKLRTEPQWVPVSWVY

T2: full-length HA-tagged rat SynCAM1 (rat) (UniProt Q6AYP5)
T2 sequence: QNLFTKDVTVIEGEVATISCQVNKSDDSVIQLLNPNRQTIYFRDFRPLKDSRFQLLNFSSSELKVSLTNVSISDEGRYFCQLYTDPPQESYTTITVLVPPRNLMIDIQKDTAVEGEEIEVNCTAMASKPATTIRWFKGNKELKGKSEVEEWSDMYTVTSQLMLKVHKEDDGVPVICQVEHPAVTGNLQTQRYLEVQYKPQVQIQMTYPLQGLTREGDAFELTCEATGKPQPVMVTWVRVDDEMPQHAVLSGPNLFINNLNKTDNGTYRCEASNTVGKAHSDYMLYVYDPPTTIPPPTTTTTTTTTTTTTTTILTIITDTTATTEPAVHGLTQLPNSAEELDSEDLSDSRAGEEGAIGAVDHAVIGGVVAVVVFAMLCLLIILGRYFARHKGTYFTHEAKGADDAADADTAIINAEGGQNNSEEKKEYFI

T3: endogenous SynCAM1 from rat brain crude synaptosomes (rat (endogenous in rat brain)) (UniProt Q6AYP5)
T3 sequence: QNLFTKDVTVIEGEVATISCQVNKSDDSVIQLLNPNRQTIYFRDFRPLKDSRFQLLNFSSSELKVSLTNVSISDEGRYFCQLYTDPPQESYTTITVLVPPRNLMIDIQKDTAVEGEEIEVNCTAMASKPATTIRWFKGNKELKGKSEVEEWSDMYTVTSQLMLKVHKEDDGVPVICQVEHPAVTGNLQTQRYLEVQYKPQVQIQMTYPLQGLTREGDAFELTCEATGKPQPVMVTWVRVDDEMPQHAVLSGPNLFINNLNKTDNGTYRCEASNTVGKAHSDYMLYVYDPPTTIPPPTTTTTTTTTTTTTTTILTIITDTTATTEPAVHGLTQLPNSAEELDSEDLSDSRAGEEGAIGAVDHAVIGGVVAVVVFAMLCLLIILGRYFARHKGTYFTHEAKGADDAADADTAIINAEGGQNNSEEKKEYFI


Key:
[1] = molecular target: T1, MYC-tagged full-length mouse MPP2 (MAGUK p55 subfamily member 2) (mouse); assay: co-IP; tagged recombinant proteins coexpressed in COS7 cells; lysis in 50 mM Tris pH 7.4, 100 mM NaCl, 1 mM EDTA, 1% Triton-X or 0.1% NP-40; IP with anti-MYC, anti-HA or anti-PSD-95 antibody (mouse IgG as control), protein-G-agarose, 4 °C; western blot
[2] = molecular target: T2, full-length HA-tagged rat SynCAM1 (rat); assay: as above
[3] = molecular target: T3, endogenous SynCAM1 from rat brain crude synaptosomes (rat (endogenous in rat brain)); assay: co-IP; endogenous proteins from adult rat brain crude synaptosomes in 50 mM Tris pH 7.4, 100 mM NaCl, 1 mM EDTA, 1% Triton-X; IP with mouse anti-Stargazin/TARPγ2 or rabbit anti-MPP2 and protein-G-agarose, or chicken anti-SynCAM-Biotin and streptavidin Dynabeads; IgG or IgY controls; western blot

Binder	binding [1]	binding [2]	binding [3]
MYC-tagged full-length mouse MPP2 (MAGUK p55 subfamily member 2) (protein, UniProt Q9WV34-1 1-552) MPVAATNSESAMQQVLDNLGSLPNATGAAELDLIFLRGIMESPIVRSLAKAHERLEETKLEAVRDNNLELVQEILRDLAELAEQSSTAAELARILQEPHFQSLLETHDSVASKTYETPPPSPGLDPTFSNQPVPPDAVRMVGIRKTAGEHLGVTFRVEGGELVIARILHGGMVAQQGLLHVGDIIKEVNGQPVGSDPRALQELLRSASGSVILKILPSYQEPHLPRQVFVKCHFDYDPARDSLSPCKEAGLRFNAGDLLQIVNQDDANWWQACHVEGGSAGLIPSQLLEEKRKAFVKRDLELTPTSGTLCGSLSGKKKKRMMYLTTKNAEFDRHELLIYEEVARMPPFRRKTLVLIGAQGVGRRSLKNKLILWDPDRYGTTVPYTSRRPKDSEREGQGYSFVSRGEMEADIRAGRYLEHGEYEGNLYGTRIDSIRGVVASGKVCVLDVNPQAVKVLRTAEFVPYVVFIEAPDYETLRAMNRAALESGVSTKQLTEADLRRTVEESSRIQRGYGHYFDLSLVNSNLERTFRELQTAMEKLRTEPQWVPVSWVY	binds	binds	–
endogenous MPP2 from rat brain crude synaptosomes (protein, UniProt D3ZAA9 1-552) MPVAATNSESAMQQVLDNLGSLPNATGAAELDLIFLRGIMESPIVRSLAKAHERLEETKLEAVRDNNLELVQEILRDLAELAEQSSTAAELARILQEPHFQSLLETHDSVASKTYETPPPSPGLDPTFSNQPVPPDAVRMVGIRKTAGEHLGVTFRVEGGELVIARILHGGMVAQQGLLHVGDIIKEVNGQPVGSDPRALQELLRSASGSVILKILPSYQEPHLPRQVFVKCHFDYDPARDSLIPCKEAGLRFNAGDLLQIVNQDDANWWQACHVEGGSAGLIPSQLLEEKRKAFVKRDLELTPTSGTLCGSLSGKKKKRMMYLTTKNAEFDRHELLIYEEVARMPPFRRKTLVLIGAQGVGRRSLKNKLILWDPDRYGTTVPYTSRRPKDSEREGQGYSFVSRGEMEADIRAGRYLEHGEYEGNLYGTRIDSIRGVVASGKVCVLDVNPQAVKVLRTAEFVPYVVFIEAPDFETLRAMNRAALESGVSTKQLTEADLRRTVEESSRIQRGYGHYFDLSLVNSNLERTFRELQTAMEKLRTEPQWVPVSWVY	–	–	binds
